Consider 7 molecules from PMC5302884.

These are yes or no findings as the source states them, for the method shown. For some assays here: In cells and extracts the contact can be indirect. Some binding calls cover weakened binding; strength is not graded here.

The target in assay [1] is Bak L19C (human) (UniProt Q16611). Briefly: cross-linking; membrane fractions treated with tBid, then 1% digitonin added before CuPhe; non-reducing SDS-PAGE; linkage within dimers.
For assay [2] the target is unchanged. Briefly: cross-linking; membrane fractions incubated with tBid (100 nM, 30 min, 30°C), pre-chilled, CuPhe on ice 15 min; non-reducing SDS-PAGE, immunoblot for Bak; 2x complexes. In general terms: A western blot detects proteins with antibodies after separation by electrophoresis.
Assay [3] shares this target. Briefly: cross-linking + native gel or EMSA; membrane fractions incubated with tBid, CuPhe on ice, then solubilised in 1% digitonin and run on blue native PAGE; 4x and greater complexes mean linkage between dimers (dimers to higher order complexes). (In EMSA bound probe runs differently from free probe, usually more slowly.)
The target of assay [4] is Bak H164C (human) (UniProt Q16611). As to the kind of experiment: cross-linking; membrane fractions treated with tBid^M97A, then with or without recombinant Bax, Bcl-xL or Mcl-1ΔN151ΔC23, then CuPhe; non-reducing SDS-PAGE.
Assay [5] shares this target. As to the kind of experiment: cross-linking; membrane fractions incubated with tBid (100 nM, 30 min, 30°C), pre-chilled, CuPhe on ice 15 min; non-reducing SDS-PAGE, immunoblot for Bak; 2x complexes.
Assay [6] has the same target. As to the kind of experiment: cross-linking; membrane fractions incubated with tBid, then CuPhe for 15 min at 30°C instead of 0°C; non-reducing SDS-PAGE and blue native PAGE.
The target is the same in assay [7]. Briefly: cross-linking + native gel or EMSA; membrane fractions incubated with tBid, CuPhe on ice, then solubilised in 1% digitonin and run on blue native PAGE; 4x and greater complexes mean linkage between dimers (dimers to higher order complexes).
For assay [8], the target named is Bak H99C (human) (UniProt Q16611). The description is as above.
In assay [9] the target is Bak H145C (human) (UniProt Q16611). The description is as above.
The target of assay [10] is Bak Cys null (BakΔCys, C14S/C166S) (human) (UniProt Q16611). Briefly: native gel or EMSA; membrane fractions incubated with tBid, no disulphide bond formed (no cysteine or no CuPhe); 1% digitonin, blue native PAGE.
In assay [11] the target is Bak L199C (human) (UniProt Q16611). Briefly: cross-linking; membrane fractions incubated with tBid, then CuPhe for 15 min at 30°C instead of 0°C; non-reducing SDS-PAGE and blue native PAGE.
For assay [12], the target named is Bak V61C (human) (UniProt Q16611). As to the kind of experiment: cross-linking; membrane fractions treated with tBid^M97A, then with or without recombinant Bax, Bcl-xL or Mcl-1ΔN151ΔC23, then CuPhe; non-reducing SDS-PAGE.
Assay [13] shares this target. As to the kind of experiment: cross-linking + native gel or EMSA; membrane fractions heated to 43°C for 30 min instead of tBid, then CuPhe; blue native PAGE and non-reducing SDS-PAGE.
The target is the same in assay [14]. Briefly: cross-linking; membrane fractions incubated with tBid (100 nM, 30 min, 30°C), pre-chilled, CuPhe on ice 15 min; non-reducing SDS-PAGE, immunoblot for Bak; 2x complexes.

B1: Bak L19C (protein, UniProt Q16611 1-211)
chain: MASGQGPGPPRQESGEPACPSASEEQVAQDTEEVFRSYVFYRHQQEQEAEGVAAPADPEMVTLPLQPSSTMGQVGRQLAIIGDDINRRYDSEFQTMLQHLQPTAENAYEYFTKIATSLFESGINWGRVVALLGFGYRLALHVYQHGLTGFLGQVTRFVVDFMLHHSIARWIAQRGGWVAALNLGNGPILNVLVVLGVVLLGQFVVRRFFKS
For the molecule B1, the binding entry in [1], in [2] and in assay [3] was “binds” each time.

B2: Bak H164C (protein, UniProt Q16611 1-211)
chain: MASGQGPGPPRQESGEPALPSASEEQVAQDTEEVFRSYVFYRHQQEQEAEGVAAPADPEMVTLPLQPSSTMGQVGRQLAIIGDDINRRYDSEFQTMLQHLQPTAENAYEYFTKIATSLFESGINWGRVVALLGFGYRLALHVYQHGLTGFLGQVTRFVVDFMLCHSIARWIAQRGGWVAALNLGNGPILNVLVVLGVVLLGQFVVRRFFKS
For B2, the binding entry in assay [4], in assay [5], in [6] and in assay [7] was “binds” in each case.

B3: Bak H99C (protein, UniProt Q16611 1-211)
chain: MASGQGPGPPRQESGEPALPSASEEQVAQDTEEVFRSYVFYRHQQEQEAEGVAAPADPEMVTLPLQPSSTMGQVGRQLAIIGDDINRRYDSEFQTMLQCLQPTAENAYEYFTKIATSLFESGINWGRVVALLGFGYRLALHVYQHGLTGFLGQVTRFVVDFMLHHSIARWIAQRGGWVAALNLGNGPILNVLVVLGVVLLGQFVVRRFFKS
For B3, the binding result in [8] is given as “binds”.

B4: Bak H145C (protein, UniProt Q16611 1-211)
chain: MASGQGPGPPRQESGEPALPSASEEQVAQDTEEVFRSYVFYRHQQEQEAEGVAAPADPEMVTLPLQPSSTMGQVGRQLAIIGDDINRRYDSEFQTMLQHLQPTAENAYEYFTKIATSLFESGINWGRVVALLGFGYRLALHVYQCGLTGFLGQVTRFVVDFMLHHSIARWIAQRGGWVAALNLGNGPILNVLVVLGVVLLGQFVVRRFFKS
B4: the binding result in assay [9] is “binds”.

B5: Bak Cys null (BakΔCys, C14S/C166S) (protein, UniProt Q16611 1-211)
chain: MASGQGPGPPRQESGEPALPSASEEQVAQDTEEVFRSYVFYRHQQEQEAEGVAAPADPEMVTLPLQPSSTMGQVGRQLAIIGDDINRRYDSEFQTMLQHLQPTAENAYEYFTKIATSLFESGINWGRVVALLGFGYRLALHVYQHGLTGFLGQVTRFVVDFMLHHSIARWIAQRGGWVAALNLGNGPILNVLVVLGVVLLGQFVVRRFFKS
B5: the binding entry in assay [10] is “binds”.

B6: Bak L199C (protein, UniProt Q16611 1-211)
chain: MASGQGPGPPRQESGEPALPSASEEQVAQDTEEVFRSYVFYRHQQEQEAEGVAAPADPEMVTLPLQPSSTMGQVGRQLAIIGDDINRRYDSEFQTMLQHLQPTAENAYEYFTKIATSLFESGINWGRVVALLGFGYRLALHVYQHGLTGFLGQVTRFVVDFMLHHSIARWIAQRGGWVAALNLGNGPILNVLVVLGVVCLGQFVVRRFFKS
Consider B6, for which, in assay [11], the binding entry is recorded as “binds”.

B7: Bak V61C (protein, UniProt Q16611 1-211)
chain: MASGQGPGPPRQESGEPALPSASEEQVAQDTEEVFRSYVFYRHQQEQEAEGVAAPADPEMCTLPLQPSSTMGQVGRQLAIIGDDINRRYDSEFQTMLQHLQPTAENAYEYFTKIATSLFESGINWGRVVALLGFGYRLALHVYQHGLTGFLGQVTRFVVDFMLHHSIARWIAQRGGWVAALNLGNGPILNVLVVLGVVLLGQFVVRRFFKS
Consider B7, for which the binding entry in assay [12], in assay [13] and in assay [14] was “binds” throughout.
